Results published in paper PMC7819943, “Rice protein-binding microarrays: a tool to detect cis-acting elements near promoter regions in rice”.
The other results are listed elsewhere or left out.

Amino acid sequences for entries named in this document (tags omitted).
UniProt Q0JBA9, entry or part of it: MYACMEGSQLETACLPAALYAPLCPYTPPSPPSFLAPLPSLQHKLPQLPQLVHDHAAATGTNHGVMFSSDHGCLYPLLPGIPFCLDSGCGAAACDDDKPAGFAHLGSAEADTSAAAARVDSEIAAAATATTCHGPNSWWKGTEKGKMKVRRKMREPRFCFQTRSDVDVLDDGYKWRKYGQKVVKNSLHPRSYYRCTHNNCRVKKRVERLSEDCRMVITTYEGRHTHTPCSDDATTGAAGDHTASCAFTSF

Molecular target: OsWRKY34 (Oryza sativa, UniProt Q0JBA9 1-250)
Assay: protein-binding microarray (RPBM); PBS, 2% BSA, 51.3 ng/ul salmon testes DNA, 50 uM zinc acetate, 200 nM TF, 25 C, 1 h; high values mean tight binding
Details: protein: recombinant; tags: N-terminal polyhistidine and DsRed monomer fusion (pET32a); label: CyDye5-dUTP incorporated in the synthesized complementary strand; 3' TTTTT single-stranded linker to array surface; dsDNA, one strand shown
Summary of the method: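 An Axon 4000B scanner gave the binding signal as per-feature fluorescence intensity in arbitrary units. This followed washing of a custom Agilent array that had been incubated for 1 h at 25 °C with 200 nM protein in PBS, 2% BSA, salmon testes DNA and 50 µM zinc acetate. The proteins were transcription factors fused at the N-terminus to polyhistidine and DsRed, expressed in E. coli BL21-CodonPlus and purified on Ni–NTA.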

Sequence	binding signal
TTCCTAACTAAGTTTGTTGTATTTTTTTTTTTCAAGTACTCGGAGTCACCTAGTGCAG	8180 fluorescence intensity (a.u.)
CAACCTACTTCCTTACCACACTTGGTTTCTATAACAAACACGGAGTCACCTAGTGCAG	8290 fluorescence intensity (a.u.)
ACACTTGGCATTTTTACTTGTTATGATTCTAGTTTGACCACGGAGTCACCTAGTGCAG	10800 fluorescence intensity (a.u.)
CAGCAGTGTGTGTAAGAGGAGAGAGAAGCAGTGCCCTTTACGGAGTCACCTAGTGCAG	8530 fluorescence intensity (a.u.)
CTCTTTTGGTCATGTGTTTGGTACTGCTTGTCGCACTTTCCGGAGTCACCTAGTGCAG	16000 fluorescence intensity (a.u.)
GATACAACCATTGCTCACATCATGGATGAACAAGATGACACGGAGTCACCTAGTGCAG	8160 fluorescence intensity (a.u.)
ATGGAGGCGGTGGTCGGAGGTGGCAGACGATGCTCGGGGACGGAGTCACCTAGTGCAG	8040 fluorescence intensity (a.u.)
GAGGCCGGGGTCGGGGCGAGCGAGGCGAGAGGGGAGGAGGCGGAGTCACCTAGTGCAG	8910 fluorescence intensity (a.u.)
TTCATGCTTATCACCGCCTATGACTCAGCTTTTCAGCACTCGGAGTCACCTAGTGCAG	8390 fluorescence intensity (a.u.)
TTCTGAAACGTTCTTAATAACATGTCCCGTTTCTCTTTCTCGGAGTCACCTAGTGCAG	8870 fluorescence intensity (a.u.)
GCGTTGATGTTCCGAGGCTTGTCACAGGTGCTTATTTGTGCGGAGTCACCTAGTGCAG	9670 fluorescence intensity (a.u.)
TGTGACCTAGGATTGTTATTTTATATTTGTAGATTGTGTGCGGAGTCACCTAGTGCAG	9140 fluorescence intensity (a.u.)
TAGCAGTGTTCTTCATTGTAGATGCCCTTACTATTACTTTCGGAGTCACCTAGTGCAG	8070 fluorescence intensity (a.u.)
CTCTCTTGTCTAGCTATCTTTCTTTGCATGTCTTTGCATTCGGAGTCACCTAGTGCAG	9760 fluorescence intensity (a.u.)
TTTAGATTTTTTTTCTTCTTCAAACGTTCAACTTTTCCGTCGGAGTCACCTAGTGCAG	9040 fluorescence intensity (a.u.)
GGAGGCGTATTTTTTGTGCGTAAAGGTGGACTCGAAACTCCGGAGTCACCTAGTGCAG	8500 fluorescence intensity (a.u.)
ACAGTTATTTTTTCTGCGCTTTGCAAGTTGCAAATCTAAACGGAGTCACCTAGTGCAG	10400 fluorescence intensity (a.u.)
CTTATGTCTCACTAAATATTTACTTTTGCCATCGGCAAATCGGAGTCACCTAGTGCAG	8080 fluorescence intensity (a.u.)
CCACCCACTCGCTACCACTTTTTTTCCTTTGACTGAGTGTCGGAGTCACCTAGTGCAG	16200 fluorescence intensity (a.u.)
GCTTTCACACTAGGTGAGCACTCCACTGCCTGCCTCCGGCCGGAGTCACCTAGTGCAG	9260 fluorescence intensity (a.u.)
GGGCTTTGGGCTCTTGTATCGTCCCTGGGCCGTTCACCGCCGGAGTCACCTAGTGCAG	8080 fluorescence intensity (a.u.)
CTTCTCGCACCGCCGCCGCCGTTCACCGGAGTCTCCCTAACGGAGTCACCTAGTGCAG	8740 fluorescence intensity (a.u.)
CGTGGAGAGGATTTGAGTGCCTTTTTTGGAGTTTGAGGGGCGGAGTCACCTAGTGCAG	9570 fluorescence intensity (a.u.)
CACCACCGTGCACTTCACAATTCACACTACTCCTTCAGATCGGAGTCACCTAGTGCAG	8340 fluorescence intensity (a.u.)
TCGAGTTCCACATACGGTATTTTCTACTAGTACTCTATTTCGGAGTCACCTAGTGCAG	9970 fluorescence intensity (a.u.)
GGGAGACGGCACCCCTCGCGTGGGAGGGGACAGGGGAAAGCGGAGTCACCTAGTGCAG	9460 fluorescence intensity (a.u.)
GTGCTGGCTTTTTCTTTCTATAAACGTTTGATGAATTCTGCGGAGTCACCTAGTGCAG	8290 fluorescence intensity (a.u.)

Sequence	binding signal
ACGCCCCGGTCTACCTCTCTGTGCACCGACGACAGTGATGCGGAGTCACCTAGTGCAG	9210 fluorescence intensity (a.u.)
TCCAAACCTGTATGCTTCGCCATAACACACGACAATTGACCGGAGTCACCTAGTGCAG	10700 fluorescence intensity (a.u.)
GGTCGTCCGTCAGCATCCTCTCTCCGTCAAACTGTTTGGTCGGAGTCACCTAGTGCAG	11100 fluorescence intensity (a.u.)
ACTTCATTCGCTCGGATACTCAAGACTTGGTAACCTAGCACGGAGTCACCTAGTGCAG	8090 fluorescence intensity (a.u.)
TCACCACACAAGGTCATATGACCTCAATTCCTTGCCATTCCGGAGTCACCTAGTGCAG	9340 fluorescence intensity (a.u.)
TTCTATACGTTTAGGGTCTGTTTAGTTCACGTTTAGTTCACGGAGTCACCTAGTGCAG	9320 fluorescence intensity (a.u.)
ATGTTTAAAAAAGTCAACGGCATTAAATATTTAGGGACGGCGGAGTCACCTAGTGCAG	13100 fluorescence intensity (a.u.)
CGTCTGTTCTTTAAATGCGCTCGCCCAACTGCTCGCATCTCGGAGTCACCTAGTGCAG	9310 fluorescence intensity (a.u.)
TTTTCCTATACCCACACCATCCATCCCTTCGCCGGTTTCGCGGAGTCACCTAGTGCAG	8150 fluorescence intensity (a.u.)
GTGATATAGAGTTTTTGTATTTCCATATTTTGCTTATAGACGGAGTCACCTAGTGCAG	8890 fluorescence intensity (a.u.)
GAGCTTTTATTTGAGTCTATCTCTCTCGTCTAATTTATACCGGAGTCACCTAGTGCAG	8710 fluorescence intensity (a.u.)
TGTGCTGTGTGGTGTACTGGTGTGTGGGCTTAATAATTGTCGGAGTCACCTAGTGCAG	14200 fluorescence intensity (a.u.)
ACCCCTAATGGCAGCTTTTCCGTTCTGCGCTTTTACTTCCCGGAGTCACCTAGTGCAG	15200 fluorescence intensity (a.u.)
TGTTCCTTTCGCGCATGGTCGACGCCTTTTCCCTGTTCAACGGAGTCACCTAGTGCAG	10900 fluorescence intensity (a.u.)
AAATATAATTCCGTGCCTTGTTAATATATCTCTGTTATCCCGGAGTCACCTAGTGCAG	12800 fluorescence intensity (a.u.)
CATTCTCCACCACCGCTCCCTAGCACACGAGAGAGACGACCGGAGTCACCTAGTGCAG	8800 fluorescence intensity (a.u.)
TTTTCCCAACTCACCTTTCTTGTTTTCCGCGCACACGCATCGGAGTCACCTAGTGCAG	12100 fluorescence intensity (a.u.)
CTGCTATAGATTGCTCTGTCCATTTACATTTGGTTTCTTGCGGAGTCACCTAGTGCAG	11100 fluorescence intensity (a.u.)
GTGATAGATATATGGGGCCAAGGGCATTTCTGACCCTTTTCGGAGTCACCTAGTGCAG	9120 fluorescence intensity (a.u.)
GCCGTATCTTCTGCGTTGACCAGATCCTTCACTGTCACGCCGGAGTCACCTAGTGCAG	19200 fluorescence intensity (a.u.)
GCTCGCCAGTTCGTCGTCCTCTTCGCCGAGCTCGCGAGCTCGGAGTCACCTAGTGCAG	9250 fluorescence intensity (a.u.)
CGTAAGCTCTCCAGTTCAAATGGTCTTCTCGTGGGCCTCTCGGAGTCACCTAGTGCAG	9390 fluorescence intensity (a.u.)
TGTGAGTAGTTTGTGGTTGGGAGTGTAACGGGTGGGGTGGCGGAGTCACCTAGTGCAG	16900 fluorescence intensity (a.u.)
CCTCGAGCTGTGCACGGCTGGTTCGTCTCGCGCCGCTTATCGGAGTCACCTAGTGCAG	10900 fluorescence intensity (a.u.)
CGCCCCACGACCTTTTTCCCATCACCCGCCCGCGCGCGCGCGGAGTCACCTAGTGCAG	10900 fluorescence intensity (a.u.)
GTCTCGCTCTTCCTCGGGTTCCGCTTCTCCAGGCTCCTCTCGGAGTCACCTAGTGCAG	8870 fluorescence intensity (a.u.)
GCCATGTCCTGGTCGTGACGCCCACCTACTCCCGCGCGTTCGGAGTCACCTAGTGCAG	10600 fluorescence intensity (a.u.)

A few values from above.
In binding signal, TTTTCCCAACTCACCTTTCTTGTTTTCCGCGCACACGCATCGGAGTCACCTAGTGCAG has the entry 12100 fluorescence intensity (a.u.)
In binding signal, CGTGGAGAGGATTTGAGTGCCTTTTTTGGAGTTTGAGGGGCGGAGTCACCTAGTGCAG has the entry 9570 fluorescence intensity (a.u.)
In binding signal, ACTTCATTCGCTCGGATACTCAAGACTTGGTAACCTAGCACGGAGTCACCTAGTGCAG has the entry 8090 fluorescence intensity (a.u.)
In binding signal, GTGCTGGCTTTTTCTTTCTATAAACGTTTGATGAATTCTGCGGAGTCACCTAGTGCAG has the entry 8290 fluorescence intensity (a.u.)
